Experimental data: patent US9370547B2, “Compositions and methods for treating ischemia” (UNIVERSITY OF KENTUCKY RESEARCH FOUNDATION, priority 2014, dated 2016)
At least one peptide structure holds a part that was inferred or is arguable (an end, a ring closure or a residue).

Columns and labels:
[1] = system: C57Bl6 WT brain endothelial cell line; assay: FITC-dextran permeability across brain endothelial cell monolayer, baseline or OGD-reperfusion; type: cell-based, mouse
[2] = system: α5β1 integrin expression in WT brain endothelial cells; assay: Western blot for α5 integrin in brain endothelial cells before and after OGD; type: cell-based, mouse
[3] = system: claudin-5 expression in mouse brain endothelial cells; assay: Claudin-5 western blot and immunocytochemistry in brain endothelial cells after OGD; type: cell-based
Protocol: FIG. 11A includes a claudin-5 western blot of brain endothelial cells after OGD that were treated as labeled.
FIG. 11B includes plot showing the quantification of claudin-5 expression normalized to Ponceau S total protein stain for the samples show in FIG. 11A.
FIG. 11C includes images showing claudin-5 immunocytochemistry of WT mouse brain endothelial cells either just prior to (control) or 24 hours after OGD treated as labeled. Scale bar is 5 μm.

[4] = system: WT mice after MCAo; conditions: ATN-161 1 mg/kg intravenous 12 hours after MCAo, assessed PSD3, versus PBS

## Ac-PHSCN-NH2 [ATN-161]
[1]; OGD 8 hours, ATN-161 10 μM added 4 hours after OGD, reperfusion
  OGD-mediated increase in endothelial cell permeability to FITC-dextran: blocked the OGD-mediated increase
[1]; baseline, +/−ATN-161, data not shown
  FITC dextran permeability in non-OGD exposed cells: no differences were noted
[2]
  OGD-induced increase in α5β1 integrin expression: could block the OGD-induced increase
[3]
  OGD-mediated decrease in claudin-5 expression: could prevent the OGD-mediated decrease
[4]
  TTC detected infarct (mean infarct volume): little to no TTC detected infarct
  TUNEL positive apoptosis: minimal apoptosis
